Our source for the binding signal values is publication PMC7819943, “Rice protein-binding microarrays: a tool to detect cis-acting elements near promoter regions in rice”.

Protein sequences, listed by entry. Tags and fused reporters are not part of them.
UniProt Q0JBA9, entry or part of it: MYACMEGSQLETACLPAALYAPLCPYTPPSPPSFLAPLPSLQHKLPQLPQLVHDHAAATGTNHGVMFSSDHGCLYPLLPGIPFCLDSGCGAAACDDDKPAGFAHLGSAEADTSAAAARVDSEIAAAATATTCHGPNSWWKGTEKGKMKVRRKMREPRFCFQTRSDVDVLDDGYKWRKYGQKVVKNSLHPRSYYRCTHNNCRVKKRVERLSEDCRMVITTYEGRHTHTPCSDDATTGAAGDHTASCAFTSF

The list shows a part of the results.

The test concerns the target OsWRKY34 (Oryza sativa, UniProt Q0JBA9 1-250). The test is described as follows: protein-binding microarray (RPBM); PBS, 2% BSA, 51.3 ng/ul salmon testes DNA, 50 uM zinc acetate, 200 nM TF, 25 C, 1 h; high values mean tight binding. Conditions: protein: recombinant; tags: N-terminal polyhistidine and DsRed monomer fusion (pET32a); label: CyDye5-dUTP incorporated in the synthesized complementary strand; 3' TTTTT single-stranded linker to array surface; dsDNA, one strand shown. In a few lines:
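Binding signal here means per-feature fluorescence intensity in arbitrary units. The values were read on an Axon 4000B scanner after a custom Agilent array, double-stranded by primer extension with Cy5-dUTP, was incubated with 200 nM protein at 25 °C for 1 h in PBS with 2% BSA, salmon testes DNA and 50 µM zinc acetate, then washed. The proteins were transcription factors with an N-terminal polyhistidine tag and DsRed, expressed in E. coli BL21-CodonPlus and purified on Ni–NTA.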
As for “CCATTGGCCATTGCCATGCAAATGCAGTCTATAAAGATAACGGAGTCACCTAGTGCAG”, the binding signal was 9080 fluorescence intensity (a.u.).
The value for “AGTCATCACAAGCATTCTTTTATCACTTCAACTTGTGGAACGGAGTCACCTAGTGCAG” was 8540 fluorescence intensity (a.u.).
Regarding “ATCTCATCTCACCCCTACATAGTGGATCATGTACGTATCACGGAGTCACCTAGTGCAG”, the binding signal is 9290 fluorescence intensity (a.u.).
The same measure for “ATGCGCTGTTCTTGCTATCCCTCTCGTCAGTTTGTGCCCTCGGAGTCACCTAGTGCAG”: 11300 fluorescence intensity (a.u.).
The same measure for “TCTCTTAGGCCTATTCGGTTCACGGGATTTCCCAATCACACGGAGTCACCTAGTGCAG”: 8200 fluorescence intensity (a.u.).
Turning to “CCGCTGCTGTTTTCTTTTCTTTTGTAAGTGTGTAACGTTACGGAGTCACCTAGTGCAG”, the binding signal was 9400 fluorescence intensity (a.u.).
The value for “GGTTCATCTCCTATCTCTAGTTAGATATACAATTTACATGCGGAGTCACCTAGTGCAG” was 8270 fluorescence intensity (a.u.); that for “TCACCTACGTATCTCTTCGCTGCACTTTCTATTTTTTATACGGAGTCACCTAGTGCAG” was 15500 fluorescence intensity (a.u.).
The value for “CCTCTGTATTTTGGCCTATACTTTCAGTTTGACCACTTACCGGAGTCACCTAGTGCAG” was 9140 fluorescence intensity (a.u.); that for “CGTGTGGAGAGGATAGGGATATGAGTTTGTATTTGACCCTCGGAGTCACCTAGTGCAG” was 8040 fluorescence intensity (a.u.).
Regarding “AAAAAATCTTATCAGGTAACCGTACTTCTACCTGATTAGGCGGAGTCACCTAGTGCAG”, the binding signal was 13000 fluorescence intensity (a.u.).
With “ACAGAGATTAGCTTCCAACACTATTAATTTCTCACCCCAACGGAGTCACCTAGTGCAG”, the binding signal is 8410 fluorescence intensity (a.u.).
The same measure for “GACTATAGTGCCTTTGATTTTCCTGTCAGATCAACTCCTTCGGAGTCACCTAGTGCAG”: 8190 fluorescence intensity (a.u.).
The same measure for “TCTGGCTTAGTTACTGTACAATTCATATCTACGTGCACTGCGGAGTCACCTAGTGCAG”: 8280 fluorescence intensity (a.u.); for “GAGATTGGAAGCACCATTTGACATTACGCGCCTGATTCATCGGAGTCACCTAGTGCAG”: 9310 fluorescence intensity (a.u.).
The value for “ACGAGCGCCCCACCACCATCTCATTCTTGCCTCCTCCAAACGGAGTCACCTAGTGCAG” was 9250 fluorescence intensity (a.u.).
Turning to “GCTTTCTCTCTCTCTCTCTCTCACTTGTTCCCCAAGGCGACGGAGTCACCTAGTGCAG”, the binding signal was 13000 fluorescence intensity (a.u.).
Take “TATAGGAGTGAGTATATACACACTGCAGTGTTTGTTTTTTCGGAGTCACCTAGTGCAG”: the binding signal was 8320 fluorescence intensity (a.u.).
Consider “ACCCTCCGCGCCCACGATCCCTTCTCTCTCTCTTGATCGACGGAGTCACCTAGTGCAG”, for which the binding signal was 8050 fluorescence intensity (a.u.).
The same measure for “GCAGTTTTGGTGGCCCCAATGTTGACTCGCACTTTTTGTACGGAGTCACCTAGTGCAG”: 9710 fluorescence intensity (a.u.); for “TATGTGCTAAAAAGTCAACGGTGTCAAACATTTCGAAACGCGGAGTCACCTAGTGCAG”: 14000 fluorescence intensity (a.u.); for “TCACCTCTTCTGGCCCAACACGTTAACATTCTATTCTCACCGGAGTCACCTAGTGCAG”: 9170 fluorescence intensity (a.u.).
The value for “GTTGATTTCATTAGCGAGTTTACCCACAGCACAATAAACTCGGAGTCACCTAGTGCAG” was 8510 fluorescence intensity (a.u.); that for “GGTTATGTGCTTGTGTAGGCTTGATGGGTATTTGGGCCTTCGGAGTCACCTAGTGCAG” was 9000 fluorescence intensity (a.u.); that for “CAGGGAGAAGGGTGGCAGTCGTTGGGCGGCGGTGGTAGGTCGGAGTCACCTAGTGCAG” was 10200 fluorescence intensity (a.u.).
Consider “GCCCCACCCTGCAGCGACTCCGGCTCGCTCGAGCGAGACACGGAGTCACCTAGTGCAG”, for which the binding signal is 8360 fluorescence intensity (a.u.).
With “ATGTGGGCCTAAGGGCATTTTTGACATTTCACGCGATTTCCGGAGTCACCTAGTGCAG”, the binding signal is 9440 fluorescence intensity (a.u.).
The value for “TTTCTGTTTTTTTTGGCTCGTCATCGTTGGTTTCATATACCGGAGTCACCTAGTGCAG” was 10700 fluorescence intensity (a.u.); that for “CGGCGGCGGAGGAGGAGGAGGAGGAGGGCGCGGGGCGGCGCGGAGTCACCTAGTGCAG” was 21700 fluorescence intensity (a.u.); that for “ACAGTTTGACTTTGATCAAAGTCAAAACGTCTTGTAACCTCGGAGTCACCTAGTGCAG” was 11600 fluorescence intensity (a.u.).
The value for “AGGGGTTGTTTTGTGGATAATTCGACCTGTTAATGCTACCCGGAGTCACCTAGTGCAG” was 9950 fluorescence intensity (a.u.); that for “GAGTCTCGTTTCATCTCCATCTCCATCCGCGCGCGCGCGCCGGAGTCACCTAGTGCAG” was 10200 fluorescence intensity (a.u.).
The same measure for “TGAAATATGGTTTGCATAAAGTTTGCCATCCACGATATCCCGGAGTCACCTAGTGCAG”: 8320 fluorescence intensity (a.u.); for “GCGCCTGCGTTCTTCCGTCCGCTTCGCCTCGGCCGCGCGCCGGAGTCACCTAGTGCAG”: 8280 fluorescence intensity (a.u.); for “GCACCGAATCCCCATCCCCGCCGCTGTAAATCCCTTCGCGCGGAGTCACCTAGTGCAG”: 8510 fluorescence intensity (a.u.).
Regarding “CTACTTTAGCATTAGTTTCTACTTTAGCATTAGTTTTCTGCGGAGTCACCTAGTGCAG”, the binding signal is 8070 fluorescence intensity (a.u.).
On to “TTATATGTGGCCCAGATTTCCAACGCGGTTAAAGTGGGTGCGGAGTCACCTAGTGCAG”, for which the binding signal was 8640 fluorescence intensity (a.u.).
The same measure for “GAACTTAAATCGACTAGCCCACATCTTACGGTATTAGCCGCGGAGTCACCTAGTGCAG”: 8620 fluorescence intensity (a.u.).
The value for “GGACAACCGCTCGGTCTCATGAATCAGTTTAGTCTGGGACCGGAGTCACCTAGTGCAG” was 8300 fluorescence intensity (a.u.).
For “GTTGCCAGATCTGATGCTGATCCTGTTCCTGTTGCAAGAACGGAGTCACCTAGTGCAG”, the binding signal was 9120 fluorescence intensity (a.u.).
The value for “ATCCATTCAAAAAGTGGTCACATATACAGCCTGTGTGTTGCGGAGTCACCTAGTGCAG” was 8070 fluorescence intensity (a.u.); that for “GATTTTTCTTTTACCGCGTTGATGAATCGGATTCGTTCCGCGGAGTCACCTAGTGCAG” was 8330 fluorescence intensity (a.u.).
